In paper PMC9012292:
No constants are given. Whether binding was seen depends on the method and setting. Binding seen in cells or lysates may run through a third protein. Some results given as binding are weak or reduced against the parent protein; the word gives no strength.

Sequences of proteins named here, by UniProt entry; tags and fusion partners are left off.
UniProt O55143: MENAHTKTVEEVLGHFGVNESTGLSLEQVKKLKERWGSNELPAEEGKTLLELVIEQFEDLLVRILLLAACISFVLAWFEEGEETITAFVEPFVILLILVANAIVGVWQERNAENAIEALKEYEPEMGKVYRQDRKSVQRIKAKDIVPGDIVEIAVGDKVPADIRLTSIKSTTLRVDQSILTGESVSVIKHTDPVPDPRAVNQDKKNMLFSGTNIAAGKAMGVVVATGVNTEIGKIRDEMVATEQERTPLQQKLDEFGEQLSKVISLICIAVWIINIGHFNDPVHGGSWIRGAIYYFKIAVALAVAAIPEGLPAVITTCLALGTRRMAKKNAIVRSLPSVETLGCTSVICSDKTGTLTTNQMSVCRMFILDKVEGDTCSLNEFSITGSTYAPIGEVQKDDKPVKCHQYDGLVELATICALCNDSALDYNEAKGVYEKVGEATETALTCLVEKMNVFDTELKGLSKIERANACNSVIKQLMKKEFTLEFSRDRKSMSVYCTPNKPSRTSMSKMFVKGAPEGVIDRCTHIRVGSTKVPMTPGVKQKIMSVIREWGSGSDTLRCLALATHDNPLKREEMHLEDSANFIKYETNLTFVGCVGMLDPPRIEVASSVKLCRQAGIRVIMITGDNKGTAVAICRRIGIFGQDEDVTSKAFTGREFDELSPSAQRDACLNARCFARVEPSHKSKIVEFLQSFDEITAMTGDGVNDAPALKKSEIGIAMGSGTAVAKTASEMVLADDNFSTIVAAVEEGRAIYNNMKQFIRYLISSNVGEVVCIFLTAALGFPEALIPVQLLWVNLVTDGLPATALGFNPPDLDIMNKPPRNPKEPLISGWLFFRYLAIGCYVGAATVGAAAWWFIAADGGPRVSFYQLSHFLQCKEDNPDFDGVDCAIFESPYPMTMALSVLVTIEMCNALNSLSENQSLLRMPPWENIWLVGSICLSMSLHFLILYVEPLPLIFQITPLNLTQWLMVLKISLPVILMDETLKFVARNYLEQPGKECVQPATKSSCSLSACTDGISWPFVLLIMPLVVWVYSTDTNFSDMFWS

Biological target: sarco/ER Ca2+-ATPase 2 (SERCA2) (mouse (endogenous in mouse cortex)) (UniProt O55143)
Assay: co-IP; mouse cortex tissue lysate; 1 ug Nnat, IP3R or SERCA2 antibody overnight at 4°C, protein G beads 3 hours at 4°C; immunoblot with indicated antibodies

binding: binds
B1: neuronatin (Nnat) (protein, UniProt Q61979 1-81)
chain: MAAVAAASAELLIIGWYIFRVLLQVFLECCIYWVGFAFRNPPGTQPIARSEVFRYSLQKLAHTVSRTGRQVLGERRQRAPN
